Drawing on US20100316569A1, this text covers binding for three molecules.

Amino acid sequences for entries named in this document (tags omitted). A change or cut given only in a name is not applied to a line headed by its entry. Residues count along the entry.
UniProt Q96LC7, residues 17-697: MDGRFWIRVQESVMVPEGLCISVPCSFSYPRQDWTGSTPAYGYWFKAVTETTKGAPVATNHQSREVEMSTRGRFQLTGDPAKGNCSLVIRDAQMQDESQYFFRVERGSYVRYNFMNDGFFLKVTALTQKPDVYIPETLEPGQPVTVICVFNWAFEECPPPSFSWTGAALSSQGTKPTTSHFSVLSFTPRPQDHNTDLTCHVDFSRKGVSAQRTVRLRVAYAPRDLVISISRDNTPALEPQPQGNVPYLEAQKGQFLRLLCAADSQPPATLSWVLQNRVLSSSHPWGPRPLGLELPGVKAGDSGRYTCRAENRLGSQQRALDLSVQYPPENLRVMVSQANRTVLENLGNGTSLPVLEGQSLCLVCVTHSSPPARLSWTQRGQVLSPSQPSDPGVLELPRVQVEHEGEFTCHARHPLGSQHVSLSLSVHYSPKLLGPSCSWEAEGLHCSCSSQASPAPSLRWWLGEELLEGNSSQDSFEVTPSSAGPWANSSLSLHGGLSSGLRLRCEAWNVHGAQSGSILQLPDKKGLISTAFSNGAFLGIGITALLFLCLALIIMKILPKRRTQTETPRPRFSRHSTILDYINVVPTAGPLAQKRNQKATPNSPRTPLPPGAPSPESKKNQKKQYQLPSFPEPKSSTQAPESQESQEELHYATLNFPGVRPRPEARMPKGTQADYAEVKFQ
UniProt Q16853: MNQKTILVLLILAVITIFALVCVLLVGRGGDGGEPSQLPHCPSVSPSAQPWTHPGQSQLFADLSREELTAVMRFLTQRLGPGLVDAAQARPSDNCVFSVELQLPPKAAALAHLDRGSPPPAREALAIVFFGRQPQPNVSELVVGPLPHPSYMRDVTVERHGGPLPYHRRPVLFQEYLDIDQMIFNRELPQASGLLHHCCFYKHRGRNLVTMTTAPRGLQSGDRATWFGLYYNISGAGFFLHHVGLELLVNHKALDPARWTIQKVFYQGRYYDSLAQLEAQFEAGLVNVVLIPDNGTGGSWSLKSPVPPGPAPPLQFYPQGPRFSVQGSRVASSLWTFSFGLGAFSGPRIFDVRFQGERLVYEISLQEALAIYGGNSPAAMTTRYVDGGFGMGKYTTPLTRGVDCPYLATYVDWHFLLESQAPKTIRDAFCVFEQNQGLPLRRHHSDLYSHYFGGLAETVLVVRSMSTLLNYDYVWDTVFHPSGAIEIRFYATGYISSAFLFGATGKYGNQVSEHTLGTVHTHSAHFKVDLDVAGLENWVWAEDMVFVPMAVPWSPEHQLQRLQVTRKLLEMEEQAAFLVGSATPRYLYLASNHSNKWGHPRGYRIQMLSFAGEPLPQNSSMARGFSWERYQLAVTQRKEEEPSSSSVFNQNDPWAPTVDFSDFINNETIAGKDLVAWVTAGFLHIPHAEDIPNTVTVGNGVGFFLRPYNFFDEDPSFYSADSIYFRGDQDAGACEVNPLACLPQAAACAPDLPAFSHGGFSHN

The target of assay [1] is Siglec-10 expressed on CHO cells (CHO-Siglec-10) (UniProt Q96LC7). Briefly: flow cytometry, 20 µg/ml VAP-1 on CHO-Siglec-10 cells against mock cells. (A flow cytometer gives signals particle by particle.)
Assay [2] concerns the target recombinant human VAP-1 (Vascular Adhesion Protein-1) (human) (UniProt Q16853). The assay can be described thus: ELISA, biotinylated peptide on wells coated with VAP-1.
For assay [3] the target is unchanged. Briefly: ELISA, biotinylated peptide on wells coated with 1 µg/ml VAP-1, BSA as control. For orientation: In an ELISA, binding on a coated surface is turned into a signal by an enzyme label.

Results are given in words; binding and its absence hold for the method and conditions named. Binding can be weak; no strength is given.

Consider “recombinant human VAP-1 (Vascular Adhesion Protein-1) (from UniProt Q16853) (enzyme)”, for which the binding result in assay [1] is on record as “binds”.

B1: peptide P5 … (Siglec-9 peptide) (peptide)
peptide: CARLSLSWRGLTLCPS
modifications: biotinylated
Take B1: the binding entry in assay [2] and in assay [3] was “binds” each time.

B2: peptide P3 … (Siglec-10 peptide) (peptide)
peptide: CATLSWVLQNRVLSSC
modifications: biotinylated; cysteines added to both ends
As to B2, the binding entry in assay [2] and in assay [3] was “binds” in each case.
